Differences between knockout arms are mostly noise.
Tested on: SKBR3
Experiment: relative cell number vs DMSO control (72 h) (% of DMSO); higher = less growth inhibition (more cells)
Description: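 QMAP-Seq: a pool of 5 breast cancer cell lines (ZR-75-1, SKBR3, HCC-38, MDA-MB-231, BT-20), each carrying 12 doxycycline-inducible Cas9 sgRNA perturbations (11 knockouts plus non-targeting sgNT), was treated with compounds for 72 h at four 10-fold doses (10 nM-10 uM or 1 nM-1 uM range). Barcodes were amplified and sequenced, and cell number was interpolated from 293T spike-in standard curves. The result is expressed as % of the median of DMSO wells. Two biological replicates.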

CC(C)[C@]12O[C@H]1[C@@H]1O[C@]13[C@]1(O[C@H]1C[C@H]1C4=C(CC[C@@]13C)C(=O)OC4)[C@@H]2O [Triptolide]
Conditions | relative cell number
sgRNA knockout: sgATF3, 1 nM | 115
sgRNA knockout: sgATF3, 10 nM | 60.6
sgRNA knockout: sgATF3, 100 nM | 8.45
sgRNA knockout: sgATF3, 1000 nM | 7.43
sgRNA knockout: sgATF4, 1 nM | 104
sgRNA knockout: sgATF4, 10 nM | 66.1
sgRNA knockout: sgATF4, 100 nM | 9.47
sgRNA knockout: sgATF4, 1000 nM | 8.87
sgRNA knockout: sgATF6, 1 nM | 87.9
sgRNA knockout: sgATF6, 10 nM | 62.5
sgRNA knockout: sgATF6, 100 nM | 12.2
sgRNA knockout: sgATF6, 1000 nM | 7.75
sgRNA knockout: sgATG7, 1 nM | 99.1
sgRNA knockout: sgATG7, 10 nM | 46.2
sgRNA knockout: sgATG7, 100 nM | 7.65
sgRNA knockout: sgATG7, 1000 nM | 8.55
sgRNA knockout: sgERN1, 1 nM | 78.5
sgRNA knockout: sgERN1, 10 nM | 54.2
sgRNA knockout: sgERN1, 100 nM | 8.78
sgRNA knockout: sgERN1, 1000 nM | 8.16
sgRNA knockout: sgHSF1, 1 nM | 93.7
sgRNA knockout: sgHSF1, 10 nM | 57.8
sgRNA knockout: sgHSF1, 100 nM | 12.7
sgRNA knockout: sgHSF1, 1000 nM | 11.2
sgRNA knockout: sgHSF2, 1 nM | 85.7
sgRNA knockout: sgHSF2, 10 nM | 53.4
sgRNA knockout: sgHSF2, 100 nM | 9.68
sgRNA knockout: sgHSF2, 1000 nM | 12.15
sgRNA knockout: sgKEAP1, 1 nM | 100
sgRNA knockout: sgKEAP1, 10 nM | 53
sgRNA knockout: sgKEAP1, 100 nM | 7.76
sgRNA knockout: sgKEAP1, 1000 nM | 8.26
sgRNA knockout: sgNFE2L2, 1 nM | 90.4
sgRNA knockout: sgNFE2L2, 10 nM | 59.8
sgRNA knockout: sgNFE2L2, 100 nM | 12.6
sgRNA knockout: sgNFE2L2, 1000 nM | 7.87
sgRNA knockout: sgSLC35F2, 1 nM | 88.5
sgRNA knockout: sgSLC35F2, 10 nM | 53.7
sgRNA knockout: sgSLC35F2, 100 nM | 10
sgRNA knockout: sgSLC35F2, 1000 nM | 5.78
sgRNA knockout: sgXBP1, 1 nM | 74.5
sgRNA knockout: sgXBP1, 10 nM | 50.632
sgRNA knockout: sgXBP1, 100 nM | 8.49
sgRNA knockout: sgXBP1, 1000 nM | 9.32

Cc1onc(-c2ccccc2)c1-c1ccc(S(N)(=O)=O)cc1 [Valdecoxib]
Conditions | relative cell number
sgRNA knockout: sgATF3, 10 nM | 98.8
sgRNA knockout: sgATF3, 100 nM | 99.9
sgRNA knockout: sgATF3, 1000 nM | 128
sgRNA knockout: sgATF3, 10000 nM | 108
sgRNA knockout: sgATF4, 10 nM | 93.5
sgRNA knockout: sgATF4, 100 nM | 98.7
sgRNA knockout: sgATF4, 1000 nM | 92.2
sgRNA knockout: sgATF4, 10000 nM | 109
sgRNA knockout: sgATF6, 10 nM | 105
sgRNA knockout: sgATF6, 100 nM | 104
sgRNA knockout: sgATF6, 1000 nM | 110
sgRNA knockout: sgATF6, 10000 nM | 101
sgRNA knockout: sgATG7, 10 nM | 88.2
sgRNA knockout: sgATG7, 100 nM | 111
sgRNA knockout: sgATG7, 1000 nM | 100
sgRNA knockout: sgATG7, 10000 nM | 116
sgRNA knockout: sgERN1, 10 nM | 91.1
sgRNA knockout: sgERN1, 100 nM | 79.9
sgRNA knockout: sgERN1, 1000 nM | 106
sgRNA knockout: sgERN1, 10000 nM | 116
sgRNA knockout: sgHSF1, 10 nM | 103.9
sgRNA knockout: sgHSF1, 100 nM | 95.2
sgRNA knockout: sgHSF1, 1000 nM | 103
sgRNA knockout: sgHSF1, 10000 nM | 111
sgRNA knockout: sgHSF2, 10 nM | 98.5
sgRNA knockout: sgHSF2, 100 nM | 85.7
sgRNA knockout: sgHSF2, 1000 nM | 92.6
sgRNA knockout: sgHSF2, 10000 nM | 104
sgRNA knockout: sgKEAP1, 10 nM | 78.5
sgRNA knockout: sgKEAP1, 100 nM | 113
sgRNA knockout: sgKEAP1, 1000 nM | 105
sgRNA knockout: sgKEAP1, 10000 nM | 125
sgRNA knockout: sgNFE2L2, 10 nM | 104
sgRNA knockout: sgNFE2L2, 100 nM | 107
sgRNA knockout: sgNFE2L2, 1000 nM | 102
sgRNA knockout: sgNFE2L2, 10000 nM | 116
sgRNA knockout: sgSLC35F2, 10 nM | 87.1
sgRNA knockout: sgSLC35F2, 100 nM | 112
sgRNA knockout: sgSLC35F2, 1000 nM | 86.6
sgRNA knockout: sgSLC35F2, 10000 nM | 116
sgRNA knockout: sgXBP1, 10 nM | 92.9
sgRNA knockout: sgXBP1, 100 nM | 91.7
sgRNA knockout: sgXBP1, 1000 nM | 120
sgRNA knockout: sgXBP1, 10000 nM | 97.5

C[C@]1(c2nc3c(C(N)=O)cccc3[nH]2)CCCN1 [Veliparib]
Conditions | relative cell number
sgRNA knockout: sgATF3, 10 nM | 108
sgRNA knockout: sgATF3, 100 nM | 99.7
sgRNA knockout: sgATF3, 1000 nM | 95.3
sgRNA knockout: sgATF3, 10000 nM | 88.2
sgRNA knockout: sgATF4, 10 nM | 95.8
sgRNA knockout: sgATF4, 100 nM | 105
sgRNA knockout: sgATF4, 1000 nM | 88.1
sgRNA knockout: sgATF4, 10000 nM | 75
sgRNA knockout: sgATF6, 10 nM | 73.7
sgRNA knockout: sgATF6, 100 nM | 110
sgRNA knockout: sgATF6, 1000 nM | 95
sgRNA knockout: sgATF6, 10000 nM | 80.1
sgRNA knockout: sgATG7, 10 nM | 118
sgRNA knockout: sgATG7, 100 nM | 110
sgRNA knockout: sgATG7, 1000 nM | 102
sgRNA knockout: sgATG7, 10000 nM | 92.3
sgRNA knockout: sgERN1, 10 nM | 98
sgRNA knockout: sgERN1, 100 nM | 110
sgRNA knockout: sgERN1, 1000 nM | 102
sgRNA knockout: sgERN1, 10000 nM | 82.3
sgRNA knockout: sgHSF1, 10 nM | 85.6
sgRNA knockout: sgHSF1, 100 nM | 111
sgRNA knockout: sgHSF1, 1000 nM | 83.3
sgRNA knockout: sgHSF1, 10000 nM | 72
sgRNA knockout: sgHSF2, 10 nM | 97.6
sgRNA knockout: sgHSF2, 100 nM | 85.6
sgRNA knockout: sgHSF2, 1000 nM | 104
sgRNA knockout: sgHSF2, 10000 nM | 65.2
sgRNA knockout: sgKEAP1, 10 nM | 114
sgRNA knockout: sgKEAP1, 100 nM | 96.1
sgRNA knockout: sgKEAP1, 1000 nM | 84.9
sgRNA knockout: sgKEAP1, 10000 nM | 69.2
sgRNA knockout: sgNFE2L2, 10 nM | 100
sgRNA knockout: sgNFE2L2, 100 nM | 94.9
sgRNA knockout: sgNFE2L2, 1000 nM | 84.2
sgRNA knockout: sgNFE2L2, 10000 nM | 79.3
sgRNA knockout: sgSLC35F2, 10 nM | 111
sgRNA knockout: sgSLC35F2, 100 nM | 99.5
sgRNA knockout: sgSLC35F2, 1000 nM | 83.4
sgRNA knockout: sgSLC35F2, 10000 nM | 72.4
sgRNA knockout: sgXBP1, 10 nM | 103
sgRNA knockout: sgXBP1, 100 nM | 138
sgRNA knockout: sgXBP1, 1000 nM | 90.8
sgRNA knockout: sgXBP1, 10000 nM | 82.8

— the supplement of paper PMC7661543
